From article PMC10163288
Some of the results follow.

B1: il2ra_site1_2b5i_normal_mot_HHH_b1_08426_af2_000000046_0001_39_52_H_._HHH_b1_04601_af2_0001_0000400021_0000001_0 (protein)
chain: SSSSDAAELADEYFHEASELFRRGNPEEARKLLEELEKLLKELNDERHLEDVERFLELLRNSSSS
B2: il2ra_site2_3nfp_normal_mot_HHH_b2_02747_af2_000000180_0001_18_35_H_._0ecac647df5eb0af5a9a32b1f4cfbb8e_0001_0001_0000400044_0000001_0 (protein)
chain: SLRRLFNEAYEEGDPELFMLVQLARDLLEQGIPPEEVEEIVERRAELEGIPPEVVERVREAIREH
B3: il2ra_site1_3nfp_normal_mot_HHH_b2_00809_af2_000000121_0001_23_40_H_._HHH_b1_02144_0001_0000100003_0000001_0_af2pred_0001_af2pred (protein)
chain: SSSSDREERAEEIFEEIQKAIEEGDQELLKKLLRLLFEFARKFEDPYAKELAREIIRLLGSSSSS
B4: il2ra_site2_2erj_normal_mot_HHH_b2_02727_000000149_0001_42_55_H_._HHH_b1_02740_0001_0000500026_0000001_0_af2pred_0001_af2pred (protein)
chain: SSSSDESELLVLAAENAAKIAEEEGDPEEAENLLRVVLELLEELGDEEAVERIRKLLEELSSSSS
B5: il2ra_site2_3nfp_sap_15_mot_HHH_b1_00660_af2_000000199_0001_40_57_H_._HHH_b1_03595_0001_0000100006_0000001_0_0001 (protein)
chain: SSSSDKSEEYLEAALALLRRALEEGDEEAIEKLARMLQMAAEDQGNPELVEEVRKLVEEFLSSSS
B6: il2ra_site1_3nfp_sap_11_mot_40ac32ce855e0fd9c7bcc7eb247393e9_0001_000000113_0001_1_14_H_._HHH_b2_01948_af2_0001_0000100007_0000001_0_0001 (protein)
chain: SSDQFFEELVRRVEELAEEKNDEEVRELAERARRLFREAEENQDSEKADEAIRIVARLMNEVQSS
B7: il2ra_site2_2erj_normal_mot_HHH_b2_01353_af2_000000049_0001_23_39_H_._HHH_b2_08022_af2_0001_0000500015_0000001_0 (protein)
chain: SSSDEEEQVERLIEEAEKLLEEGNPEEALEVLRRAAELAFRLNNHELFAEIAELTEAIARASSSS
B8: il2ra_site1_2b5i_normal_mot_HHH_b2_02581_000000027_0001_1_15_H_._HHH_b1_04616_0001_0000300020_0000001_0_af2pred_dldesign_0_af2pred (protein)
chain: SSSSSREFRRLLLEVERLLKELKKLGHEEEYDKVFELAEEALESRDPSLLREAVALARRILSSSS
B9: il2ra_site2_2erj_sap_40_mot_c2bf78bdce995293a161f7082e24b401_0001_000000177_0001_37_51_H_._aad918059751cfb3ae4f7fa8c0860a5b_0001_1_0001_0000100002_0000001_0_000 … (protein)
chain: SSSDLEEEVKELLERAEELLKEGNPEEAEEVLREAAEIVFRLGNFELFAAVARLLEEIAKRESSS
B10: il2ra_site1_2b5i_normal_mot_HHH_b2_04910_000000118_0001_1_19_H_._HHH_b1_07011_0001_0000300017_0000001_0_af2pred_dldesign_0_af2pred (protein)
chain: SSSSSPEGKKIRELIKEAEALKKAGKEEEAKKKLEEALELAKKLGSKLKVRFIESCLKLVSSSSS
B11: il2ra_site1_2b5i_sap_19_mot_HHH_b2_06557_000000199_0001_42_56_H_._HHH_b1_01408_af2_0001_0000200019_0000001_0_0001_af2pred_dldesign_0_af2pred (protein)
chain: SSSSSSLKKEALRLFEEANAAFQAGDEARARALLEELLEVATKAKCPTLLRIAQSALDEESSSSS
B12: il2ra_site1_2b5i_normal_mot_HHH_b1_01240_af2_000000288_0001_42_55_H_._HHH_b1_00339_0001_0000400024_0000001_0_af2pred_dldesign_0_af2pred (protein)
chain: SSSSDAAEAFADDAFRRALELHRQGRREEARRLLEEARAALEAQGKTDIVAQLDRLLARLSSSSS
B13: il2ra_site1_1z92_normal_mot_c9a8daa1dfea21d1414aecde54be4f54_0001_1_af2_000000024_0001_32_46_H_._84744eca03b61d784461fbba3329deeb_0001_af2_0001_0000300026_00000 … (protein)
chain: SLEEELERRLEELGVPPELIRAAKKDVEQALKLGIPPEDVLKAIARIAEDNGDPELKEAAELLLK
B14: il2ra_site2_2erj_normal_mot_HHH_b1_02968_000000142_0001_22_39_H_._HHH_b2_01127_af2_0001_0000400024_0000001_0 (protein)
chain: SSSSSDTEEEVREILEEAEEAYEKGDLERVYELAVEALHRASENRDEEAQRLVEEVVEKLSSSSS
B15: il2ra_site1_2b5i_normal_mot_HHH_b1_08504_af2_000000158_0001_42_54_H_._HHH_b2_03108_af2_0001_0000100009_0000001_0_af2pred_0001_af2pred_1 (protein)
chain: SSSSSEEWEEVEELYIEASRLFSNGNPEEAEKLLERALKIAEELGDELAVKQIEHMLKNVSSSSS
B16: il2ra_site1_3nfp_sap_22_mot_cc4219192d8ccd35c40e7b68f9a57604_0001_af2_000000124_0001_16_32_H_._HHH_b1_05637_0001_0000200014_0000001_0_0001_af2pred_0001_af2pred_ … (protein)
chain: SSSSSDLEEEVEELLEEAKKVEDPREAQEIFEEAKRLAEEANDPELRELIEEVLKRIAQSSSSSS
B17: il2ra_site2_3nfp_sap_15_mot_HHH_b2_05037_000000121_0001_41_55_H_._5124ce81285e2c7c1af0e00702a809c6_0001_af2_0001_0000100001_0000001_0_0001_af2pred_0001_af2pred (protein)
chain: SSSSSDIEERVEELLEEAKHIEDPFERFAVLADAAELAVRNGDEELEREVLEVALELRDKSSSSS
B18: il2ra_site1_2b5i_sap_13_mot_add8a691351788dd45ba4deda1838316_0001_1_af2_000000055_0001_17_32_H_._HEEHE_1324_af2_0001_0000600016_0000001_0_0001_af2pred_0001_af2p … (protein)
chain: SSSSDEDERVAELFREASELFRRGNPEEARKVLEEARELAEEAGDPVLLRDVEFMLEWLESSSSS
B19: il2ra_site2_2erj_normal_mot_HHH_b1_00216_000000142_0001_43_57_H_._HHH_b1_07996_0001_0000300009_0000001_0_af2pred_0001_af2pred (protein)
chain: SSSSTREEEEARLALLKVRLAIEEGNPERARRSIELAEKRVEELGDEEVLEQLERLLRELSSSSS

These binders were tested against il2ra, P01589 (assay: yeast display titration).

Apparent Kd, inactive:
B1 no binding seen
B2 no binding seen
B3 no binding seen
B4 no binding seen
B5 no binding seen
B6 no binding seen
B7 no binding seen
B8 no binding seen
B9 no binding seen
B10 no binding seen
B11 no binding seen
B12 no binding seen
B13 no binding seen
B14 no binding seen
B15 no binding seen
B16 no binding seen
B17 no binding seen
B18 no binding seen
B19 no binding seen

Two successive records from above, for reference:
Apparent Kd, inactive:
B13 no binding seen
B14 no binding seen
